Some of the results follow. Shown are side measurements of this screen, not its main read-out; they come without a call. The list favours compounds with an active or inconclusive main result. Words in brackets tell the shape of the fitted curve; partial curves, single points and poor fits give uncertain potencies.
Experiment: qHTS Assay to Find Inhibitors of Chronic Active B-Cell Receptor Signaling
Settings: ABC-DLBCL IkBa-CBG/CBR reporter, luminescence ratio (green luciferase fused to IkBa over red control in TMD8 lymphoma cells), 4 h
Method in brief: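 TMD8 ABC-DLBCL cells carrying doxycycline-inducible green luciferase fused to IkappaBalpha plus unfused red luciferase were exposed to compounds (up to 46 uM) for 4 hrs at 37C. Activity came from the overlap-corrected green/red luminescence ratio.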

[1] = measured here: CBR red luminescence, cell number
[2] = measured here: IkBa-CBG green luminescence

Row | SMILES | AC50 [1] | AC50 [2]
1 | C=CCn1c(=NC(=O)c2cccc(N3C(=O)CCC3=O)c2)sc2cccc(OC)c21 | 10 µM [falling, partial curve] | 
2 | O=C(Nc1ccc2[nH]ccc2c1)c1ccc(F)cc1 | 8.91 µM [falling, partial curve, poor fit] | 
3 | COc1ccc2ccc(=O)oc2c1CC(=O)C(C)C | 29.1 µM [rising, single point] | 
4 | CCOC(=O)c1c(N2C(=O)Nc3ccccc3N2O)n[nH]c1-c1cccc(Cl)c1 | 11.2 µM [falling, partial curve, poor fit] | 
5 | Cc1cc(/C=N/NC(=O)CC2(C)OCCO2)c(C)n1-c1cc(Cl)cc(Cl)c1 | 1.16 µM [falling, full curve, poor fit] | 
6 | COc1ccc(N=C2S/C(=C\c3ccc(C)s3)C(=O)N2CC(C)C)cc1 | 3.55 µM [falling, single point] | 
7 | O=C(Nc1ccc2cn[nH]c2c1)c1ccccc1F | 20.6 µM [falling, single point] | 
8 | CCc1ccc(N2CC(C(=O)OCC(=O)Nc3ccc([N+](=O)[O-])cc3)CC2=O)cc1 (stereo not drawn) | 29.1 µM [rising, single point] | 
9 | O=c1cnc2ccccc2n1CC1CCCCC1 | 35.5 µM [falling, single point] | 
10 | O=C(c1ccccc1)c1ccccc1N1C(=O)C=CC1=O | 12.6 µM [falling, partial curve, poor fit] | 15.8 µM [rising, partial curve, poor fit]
11 | Cc1nc(-c2ccccc2Cl)sc1C(=O)/C=C/N(C)C | 2.82 µM [rising, partial curve] | 
12 | CC(C)C(NC(=O)c1c(F)cccc1F)C(=O)NCCc1ccc(S(N)(=O)=O)cc1 (stereo not drawn) | 14.1 µM [rising, partial curve, poor fit] | 
13 | CCOc1ccccc1NC(=O)CNC(=O)Cc1ccccc1 | 8.91 µM [falling, partial curve] | 
14 | Cc1onc(-c2ccccc2)c1CNC(=O)CN1C(=O)c2ccccc2C1=O | 11.2 µM [rising, partial curve, poor fit] | 
15 | CC(C)c1cc(Br)ccc1OCCN1C(=O)NC(C)(C)C1=O | 35.5 µM [falling, single point] | 
16 | O=C(COC(=O)Cn1cnc2ccccc2c1=O)Nc1ccccc1OC(F)F | 0.517 µM [rising, partial curve, poor fit] | 
17 | O=c1cc(-c2ccccc2)nc(SCc2ccccc2)[nH]1 | 32.6 µM [rising, partial curve, poor fit] | 
18 | O=C1c2ccccc2C(=O)N1CCSc1nncs1 | 22.4 µM [rising, single point] | 
19 | Cc1cc(C)c(NC(=S)NC(CO)(CO)CO)c(C)c1 | 6.31 µM [rising, full curve] | 
20 | CCCOC(=O)c1ccc(NC(=O)CCC(=O)OCC)cc1 | 5.01 µM [falling, partial curve] | 
21 | COc1ccc(/C=N/N(C)C2=NCCN2)c(OC)c1OC | 7.08 µM [falling, partial curve] | 

Sorted by length of the SMILES (smallest number first): part of the list above
Row | SMILES | AC50 [1] | AC50 [2]
9 | O=c1cnc2ccccc2n1CC1CCCCC1 | 35.5 µM [falling, single point] | 
18 | O=C1c2ccccc2C(=O)N1CCSc1nncs1 | 22.4 µM [rising, single point] | 
7 | O=C(Nc1ccc2cn[nH]c2c1)c1ccccc1F | 20.6 µM [falling, single point] | 
2 | O=C(Nc1ccc2[nH]ccc2c1)c1ccc(F)cc1 | 8.91 µM [falling, partial curve, poor fit] | 
21 | COc1ccc(/C=N/N(C)C2=NCCN2)c(OC)c1OC | 7.08 µM [falling, partial curve] | 
17 | O=c1cc(-c2ccccc2)nc(SCc2ccccc2)[nH]1 | 32.6 µM [rising, partial curve, poor fit] | 
15 | CC(C)c1cc(Br)ccc1OCCN1C(=O)NC(C)(C)C1=O | 35.5 µM [falling, single point] | 
16 | O=C(COC(=O)Cn1cnc2ccccc2c1=O)Nc1ccccc1OC(F)F | 0.517 µM [rising, partial curve, poor fit] | 
14 | Cc1onc(-c2ccccc2)c1CNC(=O)CN1C(=O)c2ccccc2C1=O | 11.2 µM [rising, partial curve, poor fit] | 
6 | COc1ccc(N=C2S/C(=C\c3ccc(C)s3)C(=O)N2CC(C)C)cc1 | 3.55 µM [falling, single point] | 
4 | CCOC(=O)c1c(N2C(=O)Nc3ccccc3N2O)n[nH]c1-c1cccc(Cl)c1 | 11.2 µM [falling, partial curve, poor fit] | 
1 | C=CCn1c(=NC(=O)c2cccc(N3C(=O)CCC3=O)c2)sc2cccc(OC)c21 | 10 µM [falling, partial curve] | 
12 | CC(C)C(NC(=O)c1c(F)cccc1F)C(=O)NCCc1ccc(S(N)(=O)=O)cc1 (stereo not drawn) | 14.1 µM [rising, partial curve, poor fit] | 
8 | CCc1ccc(N2CC(C(=O)OCC(=O)Nc3ccc([N+](=O)[O-])cc3)CC2=O)cc1 (stereo not drawn) | 29.1 µM [rising, single point] | 

Remaining list, next part:

Row | SMILES | AC50 [1] | AC50 [2]
22 | COc1cccc(NC(=O)c2ccccc2F)c1 | 29.1 µM [falling, single point] | 
23 | COC(=O)c1cn(C(=O)c2ccc(OC)cc2)c2ccccc12 | 15.8 µM [rising, partial curve] | 20 µM [falling, partial curve]
24 | CC(O)c1cc2c(s1)c1cnn(Cc3ccccc3F)c(=O)c1n2C (stereo not drawn) | 5.8 µM [rising, full curve] | 
25 | O=C(CN1CCN(S(=O)(=O)c2ccc(F)cc2)CC1)Nc1ccc(Cl)c(C(F)(F)F)c1 | 35.5 µM [falling, single point] | 
26 | CN(CC(=O)Nc1ccc(Cl)c(C(F)(F)F)c1)CC(=O)NC1CCCCC1 | 2.59 µM [rising, partial curve, poor fit] | 
27 | C=CCC[C@@H](Cc1ccc(F)cc1)C(=O)OC[C@H](Cc1c[nH]c2ccccc12)NC(=O)[C@H](CC=C)CC(=O)N(CCO)Cc1ccccc1 | 16.4 µM [falling, single point] | 
28 | COc1ccc(C(c2c(C)[nH]n(C(N)=S)c2=O)C(C#N)C#N)cc1 (stereo not drawn) | 18.4 µM [falling, single point] | 
29 | CNc1nc(-c2c[nH]c3ccccc23)cs1 | 3.66 µM [falling, full curve] | 
30 | CCOC(=O)/C(C#N)=C1\C(=O)N(Cc2ccccc2)c2ccccc21 | 35.5 µM [falling, single point] | 
31 | CCOC(=O)c1cnc2nc(Cc3ccccc3)[nH]n2c1=O | 17.8 µM [falling, single point] | 
32 | CCOC(=O)C1CCCN(C(=O)c2ccccc2[N+](=O)[O-])C1 (stereo not drawn) | 3.98 µM [falling, full curve] | 
33 | COCCNC(=S)N/N=C(\C)c1ccccc1OC | 32.6 µM [rising, single point] | 29.1 µM [falling, single point]
34 | Nn1c(SCC(=O)Nc2ccc(F)cc2F)nnc1-c1cccnc1 | 14.1 µM [falling, partial curve] | 
35 | Cc1ccc(Cn2nc(C)c3cc(C(=O)OCC(N)=O)sc32)cc1 | 0.82 µM [rising, partial curve, poor fit] | 
36 | COc1ccc(Br)c(C(=O)OCC(=O)NC2CCCCCC2)c1 | 29.1 µM [falling, single point] | 
37 | O=C(c1cccc(S(=O)(=O)N2CCOCC2)c1)N1CCN(C/C=C/c2ccccc2)CC1 | 29.1 µM [falling, partial curve, poor fit] | 
38 | CC1C2CC(C/C2=N/NC(=O)c2cccs2)C1(C)C (stereo not drawn) | 15.8 µM [falling, partial curve] | 
39 | O=C(c1cc2cc(Br)ccc2o1)N1CCCCC1 | 2.51 µM [rising, partial curve] | 
40 | C=CCc1c(C)nc(SC)nc1Nc1ccccc1 | 7.31 µM [falling, partial curve, poor fit] | 18.4 µM [rising, partial curve, poor fit]
41 | Nn1c(SCC(=O)Nc2nccs2)nnc1C1CC1 | 2.82 µM [rising, partial curve, poor fit] | 
42 | CCCn1c(NC(=O)C23CC4CC(CC(O)(C4)C2)C3)nc2ccccc21 | 17.8 µM [rising, single point] | 

Ordered by heavy-atom count (largest number first): part of the list above.
Row | SMILES | AC50 [1] | AC50 [2]
1 | C=CCn1c(=NC(=O)c2cccc(N3C(=O)CCC3=O)c2)sc2cccc(OC)c21 | 10 µM [falling, partial curve] | 
28 | COc1ccc(C(c2c(C)[nH]n(C(N)=S)c2=O)C(C#N)C#N)cc1 (stereo not drawn) | 18.4 µM [falling, single point] | 
40 | C=CCc1c(C)nc(SC)nc1Nc1ccccc1 | 7.31 µM [falling, partial curve, poor fit] | 18.4 µM [rising, partial curve, poor fit]

More compounds follow.

Row | SMILES | AC50 [1] | AC50 [2]
43 | COc1ccc2c(C)cc(SCC(=O)Nc3cc(C(N)=O)cc(C(N)=O)c3)nc2c1 | 0.794 µM [rising, full curve, poor fit] | 
44 | CC(=O)c1ccc2c(c1)N(CCCN1CCC(CCO)CC1)c1ccccc1S2 | 20.6 µM [falling, single point] | 
45 | COc1ccc2c(c1)OC[C@H]1[C@H]2N2C(=O)c3cc(Cl)ccc3NC(=O)[C@@]2(C)[C@H]1c1ccccc1 | 5.8 µM [falling, full curve] | 
46 | O=C(Cc1ccc([N+](=O)[O-])cc1)OCc1c(F)cccc1Cl | 22.4 µM [rising, partial curve, poor fit] | 
47 | O=C(CN1C(=O)S/C(=C\c2ccccc2Cl)C1=O)NCCCn1ccnc1 | 12.6 µM [falling, partial curve, poor fit] | 
48 | COc1ccc(-c2[nH]c(-c3ccc4c(c3)OCO4)nc2-c2ccccc2)cc1 | 5.62 µM [falling, partial curve, poor fit] | 
49 | Oc1ccc(N=Nc2ccc3c(c2)OCCO3)c2ncccc12 | 5.62 µM [rising, single point] | 
50 | Cc1ccc(C(=O)OCC(=O)Nc2ccccc2Cl)c(O)c1 | 1.78 µM [falling, full curve] | 
51 | COc1cccc(Nc2sc(C(=O)c3ccc(Cl)cc3)c(N)c2C(=O)NCCc2ccc(OC)c(OC)c2)c1 | 3.16 µM [rising, single point] | 
52 | COc1ccc(NC(=O)CNC(=O)c2cccs2)cc1Cl | 15.8 µM [rising, partial curve, poor fit] | 
53 | C=CCC(C=C)S(=O)(=O)c1ccc(C)cc1 (stereo not drawn) | 29.1 µM [rising, single point] | 25.9 µM [falling, partial curve, poor fit]
54 | COc1ccc(CCN2C(=O)C3C(C2=O)C2C=CC3C23CC3)cc1OC (stereo not drawn) | 20 µM [falling, partial curve, poor fit] | 
55 | CCCCc1ccc(NC(=O)Nc2cnccn2)cc1 | 3.55 µM [rising, full curve] | 
56 | CCc1ccc(NC(=O)c2ccc(F)c(S(=O)(=O)NCCc3ccc(OC)c(OC)c3)c2)cc1 | 15.8 µM [falling, single point] | 
57 | O=C(O)c1ccc(-n2nncc2-c2ccco2)cc1 | 12.6 µM [rising, partial curve, poor fit] | 
58 | Cc1cccc(/C=C2/S/C(=N/N=C3\CC4CCC3(C)C4(C)C)NC2=O)c1 (stereo not drawn) | 7.94 µM [rising, partial curve, poor fit] | 
59 | Cc1ccccc1-n1c(=O)/c(=C\c2ccco2)s/c1=C(/C#N)C(=O)Nc1ccccc1 | 17.8 µM [rising, partial curve, poor fit] | 
60 | O=C(NCc1cccs1)C(=O)c1cn(CC(=O)N2CCOCC2)c2ccccc12 | 11.2 µM [falling, partial curve] | 
61 | Cc1ccc(N2C(=O)c3ccc(C(=O)O)cc3C2=O)cc1C | 18.4 µM [falling, single point] | 
62 | CCC1CCc2sc(C(=O)NCC(c3ccc(OC)cc3)N3CCOCC3)cc2C1 (stereo not drawn) | 29.1 µM [rising, single point] | 
63 | CCCc1nnc(NC(=O)NCCN2C(=O)C3C4C=CC(C4)C3C2=O)s1 (stereo not drawn) | 13 µM [rising, partial curve, poor fit] | 
